Three molecules from PMC9531180 can be followed below.

Assay [1] has as its target Alix (endogenous, human) (human (endogenous in MCF-7)) (UniProt Q8WUM4). The assay is described as follows: condition: only with DTT (16.7 mM in the sample buffer, reducing SDS-PAGE); reducing SDS-PAGE with Western blot; crude exosomes with 16.7 mM DTT in the Laemmli sample buffer, 95 °C 4 min; anti-Alix blot. (In general: Immunoblotting shows a protein as a band on a membrane.)

Assay [2] addresses Alix (endogenous, rat) (rat (endogenous in Z310)) (UniProt Q9QZA2). The description is as above.
The target is the same in assay [3]. In words: non-reducing SDS-PAGE with Western blot; crude exosomes (100,000 x g) from culture media, isolated with 0, 0.5 or 1.0 mM DTT; no reducing agent in the sample buffer; anti-Alix or anti-FLAG blot.
Assay [4] concerns the target T1, Alix (endogenous, human) (human (endogenous in MCF-7)), Q8WUM4.
T1 chain: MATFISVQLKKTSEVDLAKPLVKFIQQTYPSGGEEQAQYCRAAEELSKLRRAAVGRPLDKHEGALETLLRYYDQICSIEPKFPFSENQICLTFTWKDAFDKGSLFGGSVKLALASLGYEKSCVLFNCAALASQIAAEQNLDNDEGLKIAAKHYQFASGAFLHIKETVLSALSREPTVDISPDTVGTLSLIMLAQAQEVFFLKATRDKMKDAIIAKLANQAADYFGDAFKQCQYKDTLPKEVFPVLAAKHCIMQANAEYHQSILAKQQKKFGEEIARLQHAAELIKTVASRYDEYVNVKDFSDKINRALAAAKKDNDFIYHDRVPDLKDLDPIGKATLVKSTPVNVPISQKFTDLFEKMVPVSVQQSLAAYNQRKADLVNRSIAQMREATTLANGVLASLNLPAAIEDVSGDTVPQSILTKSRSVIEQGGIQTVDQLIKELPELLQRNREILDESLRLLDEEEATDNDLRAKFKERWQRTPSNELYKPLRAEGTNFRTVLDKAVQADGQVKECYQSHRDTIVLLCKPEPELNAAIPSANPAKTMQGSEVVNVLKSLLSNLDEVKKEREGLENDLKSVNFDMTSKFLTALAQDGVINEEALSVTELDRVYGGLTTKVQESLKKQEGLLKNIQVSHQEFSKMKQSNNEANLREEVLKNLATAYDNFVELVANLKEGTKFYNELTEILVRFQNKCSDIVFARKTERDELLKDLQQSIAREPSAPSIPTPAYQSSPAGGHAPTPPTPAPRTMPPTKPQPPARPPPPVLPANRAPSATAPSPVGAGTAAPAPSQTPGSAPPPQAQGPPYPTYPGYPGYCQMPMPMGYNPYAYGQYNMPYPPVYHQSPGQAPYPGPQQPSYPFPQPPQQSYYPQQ
The description is as above. To be noted: remark: other sources report otherwise.

These are yes or no findings as the source states them, for the method shown. Some binding calls cover weakened binding; strength is not graded here.

Regarding “Alix (endogenous, human) (from UniProt Q8WUM4 1-868)”, the binding result in assay [1] is on record as “no binding”.

B1: Alix (endogenous, rat) (protein, UniProt Q9QZA2 1-873)
chain: MASFIWVQLKKTSEVDLAKPLVKFIQQTYPSGGEEQAQYCRAAEELSKLRRSALGRPLDKHEGALETLLRYYDQICSIEPKFPFSENQICLTFTWKDAFDKGSLFGGSVKLALASLGYEKSCVLFNCAALASQIAAEQNLDNDEGLKTAAKQYQFASGAFLHIKDTVLSALSREPTVDISPDTVGTLSLIMLAQAQEVFFLKATRDKMKDAIIAKLANQAADYFGDAFKQCQYKDALPKYFYFQEVFPTLAAKQCIMQANAEYHQSILAKQQKKFGEEIARLQHAAELIKNVASRYDEYVNVKDFSDKINRALAAAKKDNDFIYHDRVPDLKDLDPIGKATLVKPTPVNVPISQKFTDLFEKMVPVSVQQSLAVFSQRKADLVNRSIAQMREATTLANGVLASLNLPAAIEDVSGDTVPQSILTKSTAVVEQGGIQTVDQLIKELPELLQRNREILEESLRLLDEEEATDNDLRAKFKDRWQRTPSNDLYKPLRAEGAKFRAVLDKAVQADGQVKERYQSHRDTIALLCKPEPELNAAIPSANPAKTMQGSEVVNVLKSLLSNLDEIKKEREGLENDLKSVNFDMTSKFLTALAQDGVINEEALSVTELDRIYGGLTTKVQESLKKQEGLLKNIQVSHQEFSKMKQSNSEASLREEVLKNLATAYDNFVELVANLKEGTKFYNELTEILVRFQNKCSDIVFARKTERDELLKDLQQSIAREPSAPSIPPPAYQSSPAGGHATAPTPAPRTMPPAKPQPPARPPPPVLPANRVPPAAAATAPAGVGTASAAPPQTPGSAPPPQAQGPPYPTYPGYPGYCQMPMPMGYNPYTYGQYNMPYPPVYHQSPGQAPYPGPQQPTYPFPQPPQQSYYPQQ
On to B1, for which the figures for the binding entry in assay [2] and in assay [3] were “no binding” and “binds”, respectively.

B2: Alix (endogenous, human), Q8WUM4 1-868 (protein)
chain: MATFISVQLKKTSEVDLAKPLVKFIQQTYPSGGEEQAQYCRAAEELSKLRRAAVGRPLDKHEGALETLLRYYDQICSIEPKFPFSENQICLTFTWKDAFDKGSLFGGSVKLALASLGYEKSCVLFNCAALASQIAAEQNLDNDEGLKIAAKHYQFASGAFLHIKETVLSALSREPTVDISPDTVGTLSLIMLAQAQEVFFLKATRDKMKDAIIAKLANQAADYFGDAFKQCQYKDTLPKEVFPVLAAKHCIMQANAEYHQSILAKQQKKFGEEIARLQHAAELIKTVASRYDEYVNVKDFSDKINRALAAAKKDNDFIYHDRVPDLKDLDPIGKATLVKSTPVNVPISQKFTDLFEKMVPVSVQQSLAAYNQRKADLVNRSIAQMREATTLANGVLASLNLPAAIEDVSGDTVPQSILTKSRSVIEQGGIQTVDQLIKELPELLQRNREILDESLRLLDEEEATDNDLRAKFKERWQRTPSNELYKPLRAEGTNFRTVLDKAVQADGQVKECYQSHRDTIVLLCKPEPELNAAIPSANPAKTMQGSEVVNVLKSLLSNLDEVKKEREGLENDLKSVNFDMTSKFLTALAQDGVINEEALSVTELDRVYGGLTTKVQESLKKQEGLLKNIQVSHQEFSKMKQSNNEANLREEVLKNLATAYDNFVELVANLKEGTKFYNELTEILVRFQNKCSDIVFARKTERDELLKDLQQSIAREPSAPSIPTPAYQSSPAGGHAPTPPTPAPRTMPPTKPQPPARPPPPVLPANRAPSATAPSPVGAGTAAPAPSQTPGSAPPPQAQGPPYPTYPGYPGYCQMPMPMGYNPYAYGQYNMPYPPVYHQSPGQAPYPGPQQPSYPFPQPPQQSYYPQQ
Turning to B2, the binding entry in assay [4] was “binds”.
